Results on four substances are retold here after PMC7795690.

Protein sequences, listed by entry. Tags and fused reporters are not part of them.
UniProt P62628: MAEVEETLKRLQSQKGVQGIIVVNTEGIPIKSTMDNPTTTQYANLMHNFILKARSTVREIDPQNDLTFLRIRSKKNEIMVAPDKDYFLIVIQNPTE
UniProt Q63525: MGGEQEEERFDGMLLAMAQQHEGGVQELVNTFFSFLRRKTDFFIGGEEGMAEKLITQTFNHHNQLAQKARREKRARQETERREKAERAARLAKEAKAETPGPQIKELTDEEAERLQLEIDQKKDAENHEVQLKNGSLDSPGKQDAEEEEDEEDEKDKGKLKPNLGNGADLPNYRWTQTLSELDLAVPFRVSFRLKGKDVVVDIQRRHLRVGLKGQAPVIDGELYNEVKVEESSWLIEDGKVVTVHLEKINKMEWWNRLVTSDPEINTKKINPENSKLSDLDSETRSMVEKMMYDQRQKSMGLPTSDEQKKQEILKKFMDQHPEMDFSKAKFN
UniProt Q9Y266: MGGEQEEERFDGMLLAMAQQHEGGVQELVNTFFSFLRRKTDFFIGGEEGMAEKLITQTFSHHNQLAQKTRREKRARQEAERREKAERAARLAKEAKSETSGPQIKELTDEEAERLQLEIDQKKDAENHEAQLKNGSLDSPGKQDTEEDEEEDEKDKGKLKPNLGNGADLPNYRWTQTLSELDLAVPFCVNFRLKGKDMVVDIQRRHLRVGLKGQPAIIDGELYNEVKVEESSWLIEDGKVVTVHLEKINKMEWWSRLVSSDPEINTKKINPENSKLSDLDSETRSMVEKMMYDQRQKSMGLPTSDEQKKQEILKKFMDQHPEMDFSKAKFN
UniProt Q9NP97: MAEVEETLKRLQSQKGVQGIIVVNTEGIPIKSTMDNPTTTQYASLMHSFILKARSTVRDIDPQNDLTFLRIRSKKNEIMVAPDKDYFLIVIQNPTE
UniProt P81799: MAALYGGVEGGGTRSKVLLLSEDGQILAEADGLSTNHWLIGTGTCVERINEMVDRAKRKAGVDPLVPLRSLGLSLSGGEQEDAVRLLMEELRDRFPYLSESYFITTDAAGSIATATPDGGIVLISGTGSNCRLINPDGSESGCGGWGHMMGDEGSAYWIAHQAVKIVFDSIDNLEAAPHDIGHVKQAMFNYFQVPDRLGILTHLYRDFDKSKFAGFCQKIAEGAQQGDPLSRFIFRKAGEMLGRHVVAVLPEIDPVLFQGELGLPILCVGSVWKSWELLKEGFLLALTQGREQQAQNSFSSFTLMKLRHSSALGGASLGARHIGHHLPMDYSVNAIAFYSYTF
UniProt Q9UJ70: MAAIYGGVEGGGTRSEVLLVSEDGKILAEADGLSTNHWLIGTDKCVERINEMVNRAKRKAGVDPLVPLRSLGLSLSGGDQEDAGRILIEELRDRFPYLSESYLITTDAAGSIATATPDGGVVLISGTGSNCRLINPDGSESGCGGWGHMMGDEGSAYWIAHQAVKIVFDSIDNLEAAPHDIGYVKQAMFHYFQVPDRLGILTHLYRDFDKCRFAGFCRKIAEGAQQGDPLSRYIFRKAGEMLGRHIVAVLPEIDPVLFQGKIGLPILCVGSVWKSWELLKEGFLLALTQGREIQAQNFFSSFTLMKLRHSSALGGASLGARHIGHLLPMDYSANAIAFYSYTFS
UniProt Q9Y6G9: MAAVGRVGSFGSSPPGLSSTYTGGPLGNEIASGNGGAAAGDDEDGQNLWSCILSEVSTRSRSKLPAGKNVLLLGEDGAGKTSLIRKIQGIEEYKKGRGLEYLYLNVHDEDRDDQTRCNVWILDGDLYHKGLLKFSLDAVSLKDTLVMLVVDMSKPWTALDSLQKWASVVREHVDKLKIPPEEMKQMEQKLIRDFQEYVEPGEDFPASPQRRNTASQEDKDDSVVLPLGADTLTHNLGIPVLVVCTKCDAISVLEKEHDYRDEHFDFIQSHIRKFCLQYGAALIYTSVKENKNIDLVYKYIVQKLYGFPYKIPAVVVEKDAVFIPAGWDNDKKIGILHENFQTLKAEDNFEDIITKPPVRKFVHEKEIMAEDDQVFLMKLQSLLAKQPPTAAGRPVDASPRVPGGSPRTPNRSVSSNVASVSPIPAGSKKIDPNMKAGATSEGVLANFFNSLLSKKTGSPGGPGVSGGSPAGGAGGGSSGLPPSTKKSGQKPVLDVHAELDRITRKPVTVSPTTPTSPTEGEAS

Where a chain is given by its changes, count along the chain named. These are yes or no findings as the source states them, for the method shown. Binding seen in cells or lysates may run through a third protein. Some binding calls cover weakened binding; strength is not graded here.

Experiment [1] has as its target T1, lissencephaly 1 (Lis1), endogenous in rat migrating neurons (rat (endogenous in neurons from E14 rat cortex)) (UniProt P63004).
T1 sequence: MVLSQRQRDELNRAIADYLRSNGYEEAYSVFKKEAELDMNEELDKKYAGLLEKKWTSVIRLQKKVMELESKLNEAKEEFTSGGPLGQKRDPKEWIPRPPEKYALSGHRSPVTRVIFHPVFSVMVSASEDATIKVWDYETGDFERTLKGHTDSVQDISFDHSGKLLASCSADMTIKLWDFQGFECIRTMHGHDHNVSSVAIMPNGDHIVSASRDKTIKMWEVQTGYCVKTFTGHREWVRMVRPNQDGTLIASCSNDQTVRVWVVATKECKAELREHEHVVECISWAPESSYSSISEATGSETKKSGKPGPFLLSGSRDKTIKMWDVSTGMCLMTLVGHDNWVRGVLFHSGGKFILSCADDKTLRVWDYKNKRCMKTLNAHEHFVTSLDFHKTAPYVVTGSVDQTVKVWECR
Kind of experiment: proximity ligation; in situ PLA (Duolink) with primary antibodies to the two endogenous proteins in fixed cultured rat neurons migrating from E14 neurospheres, followed by ICC for a third protein.

The target in experiment [2] is dynein light chain roadblock type 1 (DYNLRB1), endogenous in rat migrating neurons (rat (endogenous in neurons from E14 rat cortex)) (UniProt P62628). The experiment is described as above.
Experiment [3] deals with nuclear distribution protein C (NudC), endogenous in rat migrating neurons (rat (endogenous in neurons from E14 rat cortex)) (UniProt Q63525). The experiment is described as above.
The next experiment addresses His-tagged NudC (UniProt Q9Y266). Kind of experiment: pull-down; Ni-NTA magnetic resin pull-down of His-tagged NudC from lysate of transfected HEK293T cells (48 h; 25 mM Tris, 150 mM NaCl, 1.0 mM EDTA, 1% NP-40, 5% glycerol, pH 7.4); immunoblot of the elution.
The target in experiment [4] is nuclear distribution protein C (NudC), endogenous in HEK293T cells (human (endogenous in HEK293T)) (UniProt Q9Y266). Kind of experiment: proximity ligation; in situ PLA (Duolink) with primary antibodies to the two endogenous proteins in fixed migrating HEK293T cells (wound-healing, 48 h post-scratching), followed by ICC for a third protein.
In experiment [5] the target is dynein light chain roadblock type 1 (DYNLRB1), endogenous in HEK293T cells (human (endogenous in HEK293T)) (UniProt Q9NP97). Described as above.
Experiment [6] concerns the target T2, lissencephaly 1 (Lis1), endogenous in HEK293T cells (human (endogenous in HEK293T)) (UniProt P43034).
T2 sequence: T1 sequence with M39V
The description is as above.

In the case of “N-acetylglucosamine kinase (NAGK), endogenous in rat migrating neurons (from UniProt P81799 1-343)”, the binding entry in experiment [1], in experiment [2] and in experiment [3] was “binds” throughout.
As for “N-acetylglucosamine kinase (NAGK), endogenous in HEK293T cells (from UniProt Q9UJ70 1-344)”, the binding result (with His-tagged NudC; in experiment [4]; in experiment [5]; in experiment [6]) was “binds” in each case.
Regarding “dynein light chain roadblock type 1 (DYNLRB1), endogenous in HEK293T cells (from UniProt Q9NP97 1-96)”, the binding entry with His-tagged NudC was “binds”.
For the substance “dynein light intermediate chain 1 (DYNC1LI1), endogenous in HEK293T cells (from UniProt Q9Y6G9 1-523)”, the binding entry with His-tagged NudC is “binds”.
